Source: PubChem BioAssay AID314 (DTP/NCI, 2004)
The list shows only some results of the screen, not a fair sample: it gathers tests that were run many times, whatever their T/C, doses with no T/C, and many T/C values between a quarter and a half above the control. Other doses and runs of a compound stand elsewhere. T/C: endpoint of the treated group in % of that of the vehicle group. Some doses have a count of surviving animals in place of a T/C: the source files T/C as zero there, which appears to mark a toxic dose or a test without result, not a measured value. Some doses without a T/C left all or most animals alive at the check, yet need not have been tolerated: the source hardly ever lists a survival T/C far under the control, and the zero likely stands for such cases as well. Counts of survivors are from the toxicity check (mostly the fifth day) where no day follows; animals may have died later. Schedule codes are those of the source, taken here to give the interval after Q, in days (D) or hours (H), and the number of doses after X. Some entries hold several experiments; their values stand side by side, smallest first. Some molecules as drawn cover several salts, stereoisomers or complexes of the source; a dose is that of the sample tested. Where survival is the endpoint, the PubChem record calls one and a half times the control and up active, and a quarter to a half above the control has no call in these data; cut-offs in other NCI protocols can differ. Counts like (3×) count equal records among those shown. Some T/C values carry the count of animals alive at the toxicity check (mostly the fifth day); where none is given, no animal had died by that day.

System: DBA/2 mice, P1534 leukemia ip, survival T/C
Experiment: NCI In Vivo Anticancer Drug Screen. Data for tumor model P1534 Leukemia (intraperitoneal) in DBA/2 mice
Settings: T/C endpoint: mean survival time, schedule: Q01DX010 (ip), higher T/C = longer survival
Protocol: The antitumor activity of compounds was measured in mice bearing transplantable tumors. Survival or tumor size were measured and the results are expressed as the measurement made in the treated group (T) divided by the measurement made in the vehicle treated control group (C). The tumor model used in this assay is P1534 Leukemia (intraperitoneal) in DBA/2 mice

[1] = dose: 25.0 mg/kg/injection, vehicle: saline
[2] = dose: 50.0 mg/kg/injection, vehicle: saline
[3] = dose: 18.8 mg/kg/injection, vehicle: saline
[4] = dose: 37.5 mg/kg/injection, vehicle: saline
[5] = dose: 2.0 mg/kg/injection, vehicle: saline
[6] = dose: 32.0 mg/kg/injection, vehicle: saline
[7] = dose: 64.0 mg/kg/injection, vehicle: saline
[8] = dose: 400.0 mg/kg/injection, vehicle: saline
[9] = dose: 5.0 mg/kg/injection, vehicle: saline
[10] = dose: 10.0 mg/kg/injection, vehicle: saline
[11] = dose: 20.0 mg/kg/injection, vehicle: saline

`Cn1cnc([N+](=O)[O-])c1Sc1ncnc2nc[nH]c12` was tested, and the survivor count [1] was 6 of 6, the survivor count [2] was 5 of 6 and the survivor count (dose: 100.0 mg/kg/injection, vehicle: saline) was 6 of 6.
For `CN(C)c1nc(N(C)C)nc(N(C)C)n1`, the T/C [3] was 88, 96, 103 % of control, the survivor count [3] was 6 of 6 and the T/C [4] was 92 [5 of 6 alive], 96, 107 % of control. The survivor count [4] was 6 of 6 and the T/C (dose: 75.0 mg/kg/injection, vehicle: saline) was 100 (2×), 103, 107 % of control.
For `COC(=O)c1[nH]c(=O)[nH]c(=O)c1F`, the survivor count [5] was 6 of 6 and the survivor count (dose: 8.0 mg/kg/injection, vehicle: saline) was 5 of 6.
For `CN(C)c1ccc(/C=C/c2ccnc3ccccc23)cc1`, the survivor count [6] was 6 of 6, the survivor count [7] was 5 of 6 and the survivor count (dose: 128.0 mg/kg/injection, vehicle: saline) was 4 of 6. The survivor count (dose: 256.0 mg/kg/injection, vehicle: saline) was 0 of 6.
With `[N-]=[N+]=CC(=O)NCC(=O)NN` the survivor count [8] was 6 of 6, the survivor count (dose: 800.0 mg/kg/injection, vehicle: saline) was 5 of 6 and the survivor count (dose: 1200.0 mg/kg/injection, vehicle: saline) was 0 of 6. For the same compound, the survivor count (dose: 1600.0 mg/kg/injection, vehicle: saline) was 0 of 6.
In the case of `COc1cc2c3c(c4ccc(OC)c(OC)c4c2cc1OC)CN1CCC[C@@H]1C3`, the survivor count (dose: 1.25 mg/kg/injection, vehicle: saline) is reported as 6 of 6, the T/C [9] is reported as 88 [5 of 6 alive], 100 [5 of 6 alive], 107 % of control and the survivor count [9] is reported as 6 of 6. For the same compound, the survivor count [10] was 6 of 6, the survivor count (dose: 15.0 mg/kg/injection, vehicle: saline) was 6 of 6 and the survivor count [11] was 3 of 6, 5 of 6, 6 of 6.
For `CC(CCC(C)OS(C)(=O)=O)OS(C)(=O)=O` (stereo unspecified), the survivor count (dose: 16.0 mg/kg/injection, vehicle: saline) was 6 of 6.
In the case of `C[C@@H](N)[C@@H](O)c1ccccc1`, the survivor count (dose: 6.25 mg/kg/injection, vehicle: saline) is reported as 6 of 6, the survivor count (dose: 12.5 mg/kg/injection, vehicle: saline) is reported as 5 of 6 and the survivor count [1] is reported as 5 of 6.
`O=c1[nH]c(=O)n(C2CC(O)C(CO)O2)cc1Br` (stereo unspecified) was tested, and the survivor count (dose: 500.0 mg/kg/injection, vehicle: saline) was 6 of 6.
`CC(=O)Nc1ccc2nc3ccc(NC(C)=O)cc3[n+](-c3ccccc3)c2c1` was tested, and the survivor count (dose: 31.3 mg/kg/injection, vehicle: saline) was 6 of 6, the survivor count (dose: 62.5 mg/kg/injection, vehicle: saline) was 6 of 6 and the survivor count (dose: 125.0 mg/kg/injection, vehicle: saline) was 5 of 6. The survivor count (dose: 250.0 mg/kg/injection, vehicle: saline) was 6 of 6.
For `CCNNC(=O)[C@@H]1[C@H](c2cc(OC)c(OC)c(OC)c2)c2cc3c(cc2[C@H](O)[C@H]1CO)OCO3`, the survivor count [6] was 6 of 6 and the survivor count [7] was 5 of 6 and 6 of 6.
With `CC(=O)NC1=C(N2CC2)C(=O)C(NC(C)=O)=C(N2CC2)C1=O` the survivor count (dose: 0.25 mg/kg/injection, vehicle: saline) was 6 of 6, the survivor count (dose: 0.5 mg/kg/injection, vehicle: saline) was 6 of 6 and the survivor count (dose: 1.0 mg/kg/injection, vehicle: saline) was 6 of 6. The survivor count [5] was 4 of 6.
`N=C(N)N` was tested, and the survivor count (dose: 424.0 mg/kg/injection, vehicle: saline) was 0 of 6.
`OC(CBr)C(O)C(O)C(O)CBr` (stereo unspecified) was tested, and the survivor count [2] was 6 of 6, the survivor count (dose: 200.0 mg/kg/injection, vehicle: saline) was 6 of 6 and the survivor count [8] was 4 of 6.
In the case of `COc1ccc2[nH]c3c(C)c4ccncc4c(C)c3c2c1`, the survivor count [11] is reported as 6 of 6, the survivor count (dose: 40.0 mg/kg/injection, vehicle: saline) is reported as 6 of 6 and the survivor count (dose: 80.0 mg/kg/injection, vehicle: saline) is reported as 6 of 6. The survivor count (dose: 160.0 mg/kg/injection, vehicle: saline) was 6 of 6.
With `NC(Cc1ccc(N(CCCl)CCCl)cc1)C(=O)O` (stereo unspecified) the T/C (dose: 2.5 mg/kg/injection, vehicle: saline) was 126 % of control, the survivor count (dose: 4.0 mg/kg/injection, vehicle: alkali diluted with saline) was 6 of 6 and the survivor count [9] was 5 of 6. For the same compound, the survivor count [10] was 6 of 6.
